Results as given in article PMC6707248.

Chains of the proteins cited; added tags and fusions are not shown.
UniProt Q9Y3D8: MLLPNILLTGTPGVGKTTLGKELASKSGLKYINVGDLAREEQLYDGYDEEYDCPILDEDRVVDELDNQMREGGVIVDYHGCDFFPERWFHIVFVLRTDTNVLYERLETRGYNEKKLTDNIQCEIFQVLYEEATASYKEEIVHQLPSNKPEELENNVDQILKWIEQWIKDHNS
UniProt P06748: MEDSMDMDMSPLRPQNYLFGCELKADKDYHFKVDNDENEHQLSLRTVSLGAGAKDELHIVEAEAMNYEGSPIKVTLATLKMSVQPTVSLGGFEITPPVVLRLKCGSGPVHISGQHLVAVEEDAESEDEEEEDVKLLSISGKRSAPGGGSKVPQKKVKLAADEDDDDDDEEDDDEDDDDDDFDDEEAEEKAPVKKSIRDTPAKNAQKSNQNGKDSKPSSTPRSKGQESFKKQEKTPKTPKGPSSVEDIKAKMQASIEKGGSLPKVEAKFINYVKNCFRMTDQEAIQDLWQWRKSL

Target: Flag-hCINAP (human coilin-interacting nuclear ATPase protein) (human) (UniProt Q9Y3D8)
Experiment: affinity purification with mass spectrometry; HEK293T with Flag-empty vector or Flag-hCINAP, with or without IR (6 Gy); lysate purified on anti-Flag M2 affinity beads

binding: binds
Substance: endogenous NPM1 (nucleophosmin) (from UniProt P06748 1-294)

Results are given in words; binding and its absence hold for the method and conditions named. In cells and extracts the contact can be indirect. Here binding means that the protein was enriched with, or labelled near, the bait; the list need not be complete.
